In article PMC4026536:
No constants are given. Whether binding was seen depends on the method and setting. In cells and extracts the contact can be indirect. Some binding calls cover weakened binding; strength is not graded here. For some of these results: Where a sequence is shown, tags or fusion partners need not be part of it.

Columns and labels:
[1] = biological target: T1, FLAG-tagged PKD2 (protein kinase D2) (human) (UniProt Q9BZL6); assay: co-IP; HeLa cells co-transfected with FLAG-PKD2, GST-PKD3 and, in Fig. 4A, GST-RhoA.CA; lysis in 50 mM Tris-HCl pH 7.4, 1% Triton X-100, 150 mM NaCl, 5 mM EDTA; anti-FLAG immunoprecipitation of PKD2, protein G-Sepharose, blot with anti-GST
T1 sequence: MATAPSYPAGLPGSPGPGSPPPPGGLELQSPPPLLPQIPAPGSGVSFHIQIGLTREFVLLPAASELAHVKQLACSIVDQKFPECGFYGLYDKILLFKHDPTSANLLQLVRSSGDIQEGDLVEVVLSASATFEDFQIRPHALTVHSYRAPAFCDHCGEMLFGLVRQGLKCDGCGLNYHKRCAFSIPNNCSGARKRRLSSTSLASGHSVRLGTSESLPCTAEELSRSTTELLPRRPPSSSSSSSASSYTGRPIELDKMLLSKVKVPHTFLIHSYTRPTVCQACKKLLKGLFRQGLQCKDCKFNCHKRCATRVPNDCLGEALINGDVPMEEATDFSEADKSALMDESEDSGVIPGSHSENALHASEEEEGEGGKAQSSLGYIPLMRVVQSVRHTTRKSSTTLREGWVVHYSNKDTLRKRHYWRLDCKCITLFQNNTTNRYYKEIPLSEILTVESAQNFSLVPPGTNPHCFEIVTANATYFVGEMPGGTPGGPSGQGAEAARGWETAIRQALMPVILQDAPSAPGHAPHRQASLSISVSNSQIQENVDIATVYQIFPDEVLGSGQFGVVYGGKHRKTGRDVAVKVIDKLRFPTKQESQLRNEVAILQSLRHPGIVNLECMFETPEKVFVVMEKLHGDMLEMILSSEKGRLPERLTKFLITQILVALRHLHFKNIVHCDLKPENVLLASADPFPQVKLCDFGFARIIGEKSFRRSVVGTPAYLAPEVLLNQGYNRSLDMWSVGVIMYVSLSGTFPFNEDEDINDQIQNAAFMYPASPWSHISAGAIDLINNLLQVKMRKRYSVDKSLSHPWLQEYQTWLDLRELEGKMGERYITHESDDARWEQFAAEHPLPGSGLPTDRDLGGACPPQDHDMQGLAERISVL

[2] = biological target: T2, GST-tagged PKD3 (protein kinase D3) (human) (UniProt O94806); assay: co-IP; reverse orientation of the overexpressed pair (PKD3 precipitated, PKD2 detected); data not shown
T2 sequence: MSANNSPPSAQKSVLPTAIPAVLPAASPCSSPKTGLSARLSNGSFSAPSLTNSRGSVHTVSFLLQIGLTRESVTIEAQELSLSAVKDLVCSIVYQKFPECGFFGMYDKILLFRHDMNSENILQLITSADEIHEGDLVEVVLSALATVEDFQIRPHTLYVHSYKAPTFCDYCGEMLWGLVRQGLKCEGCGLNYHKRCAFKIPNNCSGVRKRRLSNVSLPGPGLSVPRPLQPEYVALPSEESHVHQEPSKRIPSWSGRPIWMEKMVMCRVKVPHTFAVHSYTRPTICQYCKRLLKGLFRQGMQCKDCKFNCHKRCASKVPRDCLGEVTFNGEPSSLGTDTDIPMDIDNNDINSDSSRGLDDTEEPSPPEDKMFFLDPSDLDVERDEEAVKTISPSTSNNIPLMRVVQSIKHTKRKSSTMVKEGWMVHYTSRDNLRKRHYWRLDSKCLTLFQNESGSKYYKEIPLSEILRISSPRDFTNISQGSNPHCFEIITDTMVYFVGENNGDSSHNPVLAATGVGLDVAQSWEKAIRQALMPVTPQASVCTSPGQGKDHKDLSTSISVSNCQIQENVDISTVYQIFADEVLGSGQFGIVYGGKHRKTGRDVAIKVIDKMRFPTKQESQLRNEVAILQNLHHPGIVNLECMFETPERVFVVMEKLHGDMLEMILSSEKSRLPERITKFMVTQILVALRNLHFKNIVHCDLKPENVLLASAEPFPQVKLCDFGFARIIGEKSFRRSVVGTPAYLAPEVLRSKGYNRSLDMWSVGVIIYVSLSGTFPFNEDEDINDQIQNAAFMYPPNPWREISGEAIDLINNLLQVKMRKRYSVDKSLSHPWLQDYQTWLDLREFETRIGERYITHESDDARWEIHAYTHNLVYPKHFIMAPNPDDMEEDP

[3] = biological target: T3, endogenous PKD2 (protein kinase D2) (human (endogenous in HeLa and MDA-MB-468)) (UniProt Q9BZL6); assay: co-IP; endogenous proteins from HeLa or MDA-MB-468 lysates under normal growth conditions; immunoprecipitation with subtype-specific anti-PKD2 or anti-PKD3 antibody, blot for the other isoform
T3 sequence: T1 sequence

[4] = biological target: T4, endogenous PKD3 (protein kinase D3) (human (endogenous in HeLa and MDA-MB-468)) (UniProt O94806); assay: as above
T4 sequence: T2 sequence

B1: GST-tagged PKD3 (protein kinase D3) (enzyme, UniProt O94806 1-890)
chain: T2 sequence
binding [1]: binds

B2: FLAG-tagged PKD2 (protein kinase D2) (enzyme, UniProt Q9BZL6 1-878)
chain: T1 sequence
binding [2]: binds

B3: endogenous PKD3 (protein kinase D3) (enzyme, UniProt O94806 1-890)
chain: T2 sequence
binding [3]: binds

B4: endogenous PKD2 (protein kinase D2) (enzyme, UniProt Q9BZL6 1-878)
chain: T1 sequence
binding [4]: binds
